From the supplement of paper PMC4635364
The other results are listed elsewhere or left out. This data set is noisy: repeats of one test often differ as much as different tests do.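 Cells: ReNCell VM human fetal ventral-midbrain neural progenitors, differentiated mitogen-free. Blinded raters compared doublecortin-stained (early neurons) or tyrosine hydroxylase-stained (dopaminergic neurons) images with untreated wells, where 0 means no change. After repeats and both raters were averaged, compounds scoring 2 or above became hits for retesting.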 Where a SMILES comes first, the peptide text is derived from it. [ ]: non-standard residue; d: D form. pGlu = O=C1CC[C@@H](C(=O)O)N1; Thz = O=C(O)[C@@H]1CSCN1

Test system: ReNCell VM
Assay: dopaminergic neuron differentiation score (TH+ cell fraction vs untreated, manual image score) (score (0 to 3)); higher = more TH+ dopaminergic neuron differentiation
Conditions: library: Prestwick; 2 uM; 4 weeks; BDNF 10 ng/ml + GDNF 10 ng/ml

Dopaminergic neuron differentiation score, inactive:
CC(C(=O)O)c1ccc2c(c1)[nH]c1ccc(Cl)cc12 (centres undefined) [Carprofen] 0
CC(=O)N[C@@H](CS)C(=O)O [Acetylcysteine] 0
COc1ccccc1Oc1c(NS(=O)(=O)c2ccc(C(C)(C)C)cc2)nc(-c2ncccn2)nc1OCCO [Bosentan] 0
C=C(NC(=O)C(=C)NC(=O)c1csc(C2=N[C@@H]3c4csc(n4)[C@H]4NC(=O)c5csc(n5)[C@H]([C@](C)(O)[C@@H](C)O)NC(=O)[C@H]5CSC(=N5)/C(=C/C)NC(=O)[C@H]([C@@H](C)O)NC(=O)c5csc(n5)[C@]3(CC2)NC(=O)[C@H](C)NC(=O)C(=C)NC(=O)[C@H](C)NC(=O)[C@H]([C@@H](C)CC)N[C@@H]2C=Cc3c([C@H](C)O)cc(nc3[C@H]2O)C(=O)O[C@@H]4C)n1)C(N)=O [Thiostrepton] 0
CNCCC=C1c2ccccc2C=Cc2ccccc21 [Norcyclobenzaprine] 0

Same assay, conditions: library: Spectrum; 2 uM; 4 weeks; BDNF 10 ng/ml + GDNF 10 ng/ml

Dopaminergic neuron differentiation score, inactive:
CC(C)(C)NC[C@H](O)COc1nsnc1N1CCOCC1 0
CN1C(CCl)Nc2cc(Cl)c(S(N)(=O)=O)cc2S1(=O)=O (centres undefined) 0
COc1ccc(-c2oc3c(CC=C(C)C)c(O[C@@H]4O[C@H](CO)[C@@H](O)[C@H](O)[C@H]4O)cc(O)c3c(=O)c2O[C@@H]2O[C@@H](C)[C@H](O)[C@@H](O)[C@H]2O)cc1 0
O=C(Nc1ccc(C(=O)O)c(O)c1)c1ccccc1 0
CCC(=O)O[C@H](CC(=O)O)C[N+](C)(C)C 0
CC(=O)Oc1ccc(C(c2ccc(OC(C)=O)cc2)c2ccccn2)cc1 0
C[C@H]1[C@@H](O)O[C@@H]2O[C@@]3(C)CC[C@H]4[C@H](C)CC[C@@H]1[C@@]24OO3 0
NCCCC[C@H](N[C@@H](CCc1ccccc1)C(=O)O)C(=O)N1CCC[C@H]1C(=O)O 0
O=C1OC(=O)[C@H]2[C@@H]1[C@@H]1CC[C@H]2O1 0
C[C@]12CC[C@@H]3c4ccc(O)cc4CC[C@H]3[C@@H]1CCC2=O 0
COc1cc(NS(=O)(=O)c2ccc(N)cc2)ncn1 0
O=C1CC[C@@H](C(=O)N2CSC[C@H]2C(=O)O)N1 ([pGlu]-[Thz]-OH) 0
CCCCCCCCCCCCCCCC[N+](C)(C)CCN(Cc1ccc(OC)cc1)c1ncccn1 1
Nc1ncn([C@@H]2O[C@H](CO)[C@@H](O)[C@H]2O)c(=O)n1 0
CC1(C)C2CCC1(C)C(O)C2 (centres undefined) 0
C#C[C@]1(O)CC[C@H]2[C@@H]3CCC4=C(CCC(=O)C4)[C@H]3CC[C@@]21C 0
CN1CCC(=C2c3ccccc3Sc3ccccc32)CC1 0
CCN(CC)CCNC(=O)c1ccc(NC(C)=O)cc1 0
O=[N+]([O-])c1ccc(O)c2ncccc12 0
C#CCCCCCCCCCCCC(O)CC(O)COC(C)=O (centres undefined) 0
Cn1cnc([N+](=O)[O-])c1Sc1ncnc2[nH]cnc12 0
C[n+]1cc2c3c(ccc2c2ccc4cc5c(cc4c21)OCO5)OCO3 0
CCCCC1=NC2(CCCC2)C(=O)N1Cc1ccc(-c2ccccc2-c2nnn[nH]2)cc1 0
O=C1CCc2cc(OCCCCc3nnnn3C3CCCCC3)ccc2N1 0

An excerpt from above in order of length of the SMILES, high to low.
Dopaminergic neuron differentiation score, inactive:
C#C[C@]1(O)CC[C@H]2[C@@H]3CCC4=C(CCC(=O)C4)[C@H]3CC[C@@]21C 0
CCCCCCCCCCCCCCCC[N+](C)(C)CCN(Cc1ccc(OC)cc1)c1ncccn1 1
CN1C(CCl)Nc2cc(Cl)c(S(N)(=O)=O)cc2S1(=O)=O (centres undefined) 0
